For at least one compound, name, drawing or mass did not settle the structure.
Tested on: C. dejecta suspension culture
Assay: Differential induction of catechin accumulation in Crassula dejecta suspension culture
Type: cell-based
Details: B49-grown cultures, added at day 7
Experimental: Differential induction of catechin derivatives in the C. dejecta suspension culture was performed in 250 mL conical flasks containing 100 mL of B105 growth medium or 100 mL of a secondary metabolite production medium B49 (Gamborg's B5, with 5% sucrose, and no hormones), inoculated with 40 mL of 21 day old suspension culture. The cultures were incubated under low light conditions (approximately 30 lux) at 25° C. Cultures were treated using one of each of the following protocols:
(1) B105 growth medium (no additions) used as is;
(3) Filter-sterilized aqueous zeatin (10 μM) was added at day 7 to a culture grown on B105 medium;
(4) B49 production medium (no additions) used as is;
(6) Filter-sterilized clofibrate (0.5 mM final concentration) was added at day 7 to a culture grown on B49 medium. Ten milliliters of culture samples were taken at regular intervals for 17 days following the day of subculture to B105 or B49 medium. All culture samples were centrifuged for five minutes at 4000 rpm, and the cell residue was freeze-dried. Extraction, sample preparation, and HPLC analysis were performed as described in Example 1.

For `CCOC(=O)C(C)(C)Oc1ccc(Cl)cc1` [Clofibrate], the catechin accumulation was “completely suppressed catechin accumulation”.
